Taken from: PubChem BioAssay AID743121 (NCATS, 2013)
Purpose: 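Knock-downs that sensitise breast cancer cells to camptothecin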 (primary screen). System: MDA-MB-231 cells, a human breast cancer line. Reagent: single siRNA against human genes, 20 nM siRNA (0.8 pmol per well). Time to read-out: 120 h (drug added 48 h after transfection, read 72 h later). Challenge: camptothecin 20 nM (about EC30) for 72 h; vehicle 0.1% DMSO in parallel plates. Measurement: 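CellTiter-Glo ATP signal, scaled to control siRNA as percent viability; sensitisation given as log2 of untreated divided by camptothecin-treated viability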. Reading the numbers: log2 vehicle/camptothecin viability: higher = stronger sensitisation to camptothecin. Rule for the call: 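Each gene scored by redundant siRNA activity (RSA) over its individual siRNA ratios; a gene is called active at p < 0.001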.
Here is one part, drawn at random, of about 26,000 reagents tested. In the full data, 167 (0.63%) are marked active. 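Calls are per gene from RSA p-values that are not deposited; an individual active-marked siRNA can sensitise only weakly.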 Unmarked entries are inactive. The numbers tell different reagents against one gene apart. Not all columns of the deposit are shown.

USP7 #1 | log2 vehicle/camptothecin viability = -0.0246
USP7 #2 | log2 vehicle/camptothecin viability = -0.11
USP7 #3 | log2 vehicle/camptothecin viability = 0.264
USP7 #4 | log2 vehicle/camptothecin viability = -0.144
CBFB #1 | log2 vehicle/camptothecin viability = -0.0197
CBFB #2 | log2 vehicle/camptothecin viability = 0.0503
CBFB #3 | log2 vehicle/camptothecin viability = -0.22
GPR37 #1 | log2 vehicle/camptothecin viability = -0.304
GPR37 #2 | log2 vehicle/camptothecin viability = -0.299
GPR37 #3 | log2 vehicle/camptothecin viability = -0.188
GPR37 #4 | log2 vehicle/camptothecin viability = -0.247
RPSA #1 | log2 vehicle/camptothecin viability = -0.378
RPSA #2 | log2 vehicle/camptothecin viability = -0.0975
RPSA #3 | log2 vehicle/camptothecin viability = -0.167
RPSA #4 | log2 vehicle/camptothecin viability = -0.861
SLC4A8 #1 | log2 vehicle/camptothecin viability = -0.384
SLC4A8 #2 | log2 vehicle/camptothecin viability = -0.0457
SLC4A8 #3 | log2 vehicle/camptothecin viability = 0.00398
SLC4A8 #4 | log2 vehicle/camptothecin viability = -0.065
MYOG #1 | log2 vehicle/camptothecin viability = -0.138
MYOG #2 | log2 vehicle/camptothecin viability = 0.0234
MYOG #3 | log2 vehicle/camptothecin viability = 0.0523
MYOG #4 | log2 vehicle/camptothecin viability = 1.16
TLCD3A #1 | log2 vehicle/camptothecin viability = -0.288
TLCD3A #2 | log2 vehicle/camptothecin viability = 0.0129
TLCD3A #3 | log2 vehicle/camptothecin viability = -0.126
TLCD3A #4 | log2 vehicle/camptothecin viability = -0.107
LEPROT #1 | log2 vehicle/camptothecin viability = -0.042
LEPROT #2 | log2 vehicle/camptothecin viability = -0.455
LEPROT #3 | log2 vehicle/camptothecin viability = -0.322
LEPROT #4 | log2 vehicle/camptothecin viability = -0.165
SLC25A42 #1 | log2 vehicle/camptothecin viability = -0.273
SLC25A42 #2 | log2 vehicle/camptothecin viability = -0.159
SLC25A42 #3 | log2 vehicle/camptothecin viability = 0.662
SLC25A42 #4 | log2 vehicle/camptothecin viability = -0.365
